Binding data for 2 molecules are collected here from PMC5869696.

Protein sequences, listed by entry. Tags and fused reporters are not part of them. Lines headed by an entry give the natural chain unless they say otherwise; changes in a name come on top.
UniProt Q94CV1: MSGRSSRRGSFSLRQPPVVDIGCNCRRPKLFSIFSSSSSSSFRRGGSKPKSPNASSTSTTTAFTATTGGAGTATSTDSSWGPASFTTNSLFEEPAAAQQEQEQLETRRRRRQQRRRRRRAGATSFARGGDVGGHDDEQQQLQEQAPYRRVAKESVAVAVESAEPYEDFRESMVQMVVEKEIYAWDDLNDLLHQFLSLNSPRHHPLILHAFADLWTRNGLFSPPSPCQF

What all share (test): two-hybrid; pairwise tests; baits in pGBKT7 (GS9-C1, OsOFP14, OsGSK2), full-length preys in pGADT7
The target in assay [1] is T1, OsGSK2, entire coding region in pGBKT7 (rice) (UniProt Q60EZ2).
T1 sequence: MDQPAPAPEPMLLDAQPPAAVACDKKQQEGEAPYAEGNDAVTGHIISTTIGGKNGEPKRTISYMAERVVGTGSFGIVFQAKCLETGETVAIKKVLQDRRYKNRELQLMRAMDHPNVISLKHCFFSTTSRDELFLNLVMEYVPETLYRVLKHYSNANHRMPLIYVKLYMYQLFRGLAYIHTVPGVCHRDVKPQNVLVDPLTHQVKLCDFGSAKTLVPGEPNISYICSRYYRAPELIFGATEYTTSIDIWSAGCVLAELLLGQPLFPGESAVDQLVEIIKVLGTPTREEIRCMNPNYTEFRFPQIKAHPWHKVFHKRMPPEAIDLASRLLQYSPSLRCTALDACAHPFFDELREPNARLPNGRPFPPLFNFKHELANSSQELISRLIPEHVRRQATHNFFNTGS

The target in assay [2] is GS9-C1 (C-terminal truncation of GS9, residues 238-346) in pGBKT7 (rice (Oryza sativa japonica, Nipponbare)).
Assay [3] deals with OsOFP14, entire coding region in pGBKT7 (rice).

No constants are given. Whether binding was seen depends on the method and setting. For part of these data: Binding calls can cover weak binding; strength is not graded here.

As to “OsOFP8, full-length cDNA in pGADT7 (from UniProt Q94CV1)”, the binding entry in assay [1] was “binds”.

B1: OsGSK2, full-length cDNA in pGADT7 (enzyme, UniProt Q60EZ2 1-402)
chain: MDQPAPAPEPMLLDAQPPAAVACDKKQQEGEAPYAEGNDAVTGHIISTTIGGKNGEPKRTISYMAERVVGTGSFGIVFQAKCLETGETVAIKKVLQDRRYKNRELQLMRAMDHPNVISLKHCFFSTTSRDELFLNLVMEYVPETLYRVLKHYSNANHRMPLIYVKLYMYQLFRGLAYIHTVPGVCHRDVKPQNVLVDPLTHQVKLCDFGSAKTLVPGEPNISYICSRYYRAPELIFGATEYTTSIDIWSAGCVLAELLLGQPLFPGESAVDQLVEIIKVLGTPTREEIRCMNPNYTEFRFPQIKAHPWHKVFHKRMPPEAIDLASRLLQYSPSLRCTALDACAHPFFDELREPNARLPNGRPFPPLFNFKHELANSSQELISRLIPEHVRRQATHNFFNTGS
For the molecule B1, the binding result in assay [2] and in assay [3] was “no binding” throughout.
